No constants are given. Whether binding was seen depends on the method and setting. In cells and extracts the contact can be indirect. Binding can be weak; no strength is given. Where a sequence is shown, tags or fusion partners need not be part of it.
Biological target: T1, G protein subunit α 11 (Gα11), myc-tagged (mouse) (UniProt P21278)
T1 sequence: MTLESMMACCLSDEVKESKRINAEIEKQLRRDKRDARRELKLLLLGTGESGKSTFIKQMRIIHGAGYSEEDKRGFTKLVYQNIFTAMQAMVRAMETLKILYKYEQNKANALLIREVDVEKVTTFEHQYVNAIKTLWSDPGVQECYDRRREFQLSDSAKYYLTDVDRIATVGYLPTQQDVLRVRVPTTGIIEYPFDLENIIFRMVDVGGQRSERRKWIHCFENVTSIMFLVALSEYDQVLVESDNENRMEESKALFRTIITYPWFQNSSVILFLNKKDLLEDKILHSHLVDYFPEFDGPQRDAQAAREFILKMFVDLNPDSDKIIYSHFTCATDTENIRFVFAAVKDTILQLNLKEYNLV
Experiment: co-IP; HEK293T cells transiently cotransfected; native lysis solution (1% Triton X-100, 150 mM NaCl, 10 mM Tris-HCl pH 7.5, 1 mM EDTA, 1 mM EGTA, 0.5% Igepal, 10% sucrose), 4°C; Gα11 immunoprecipitated with anti-myc, GαS with anti-GαS; TRPC1 detected in the complexes with 1F1

Row | binding | Substance
1 | binds | short form of TRPC1ε (mouse)
2 | binds | long form of TRPC1α (mouse)
3 | binds | long form of TRPC1ε (mouse)

From article PMC7205425
